# Test results from the supplement of paper PMC4604168 (melanoma cell lines).
# This is one part of the list. Single values are uncertain, as repeats are few or missing.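 Imaging used 1,536-well plates; nuclei positive for cleaved PARP by antibody were divided by total DNA-stained nuclei to yield the apoptosis fraction. Doses for screening kept most cells viable, and cell lines differ markedly in resting and induced cleaved-PARP levels.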
# Experiments:
# Experiment in all cases: cleaved PARP positive nuclei fraction relative to DMSO control; melanoma cells; higher = more apoptosis
# Conditions in all cases: library dose: low library concentration; 72 h
# MZ2-MEL = tested on: MZ2-MEL
# MeWo = tested on: MeWo
# RPMI7951 = tested on: RPMI7951
# RVH-421 = tested on: RVH-421
# SkMel28 = tested on: SkMel28
# SkMel2 = tested on: SkMel2
# SkMel30 = tested on: SkMel30
# SkMel5 = tested on: SkMel5
# UACC257 = tested on: UACC257
# UACC62 = tested on: UACC62
# WM115 = tested on: WM115
# WM1716 = tested on: WM1716
# WM1745 = tested on: WM1745
# WM3526 = tested on: WM3526
# WM3619 = tested on: WM3619
# WM451Lu = tested on: WM451Lu
SMILES,cleaved PARP positive nuclei fraction (MZ2-MEL) [%],cleaved PARP positive nuclei fraction (MeWo) [%],cleaved PARP positive nuclei fraction (RPMI7951) [%],cleaved PARP positive nuclei fraction (RVH-421) [%],cleaved PARP positive nuclei fraction (SkMel28) [%],cleaved PARP positive nuclei fraction (SkMel2) [%],cleaved PARP positive nuclei fraction (SkMel30) [%],cleaved PARP positive nuclei fraction (SkMel5) [%],cleaved PARP positive nuclei fraction (UACC257) [%],cleaved PARP positive nuclei fraction (UACC62) [%],cleaved PARP positive nuclei fraction (WM115) [%],cleaved PARP positive nuclei fraction (WM1716) [%],cleaved PARP positive nuclei fraction (WM1745) [%],cleaved PARP positive nuclei fraction (WM3526) [%],cleaved PARP positive nuclei fraction (WM3619) [%],cleaved PARP positive nuclei fraction (WM451Lu) [%]
"C=C(c1ccc(C(=O)O)cc1)c1cc2c(cc1C)C(C)(C)CCC2(C)C [Bexarotene] + O=C(Nc1cccc(Cl)c1)Nc1ncc(CCNc2ncnc3ccsc23)s1 [SNS314] (first compound 2 µM, partner dose 0.0008 µM)",149,114,251,127,85.6,161,59.9,51.7,104,162,53,43.5,110,90.3,121,55.7
"Nc1nc(F)nc2c1ncn2[C@@H]1O[C@H](CO)[C@@H](O)[C@@H]1O [fludarabine] + CC(C)CCN1c2nc(Nc3cc(F)c(O)c(F)c3)ncc2N(C)C(=O)C1C [BID1870] (first compound 0.2 µM, partner dose 0.2 µM)",37.4,473,37,94.8,215,1220,392,371,105,126,155,101,106,380,93.6,440
"CC(C)C[C@H](NC(=O)[C@H](Cc1ccccc1)NC(=O)c1cnccn1)B(O)O [Bortezomib] + Cc1cc([N+](=O)[O-])ccc1NS(=O)(=O)c1cc(Cl)ccc1Cl [FH535] (first compound 0.001 µM, partner dose 1 µM)",166,48,364,171,171,186,102,110,53.9,232,95.6,359,140,92.6,580,61.5
"CC(C)C[C@H](NC(=O)[C@H](Cc1ccccc1)NC(=O)c1cnccn1)B(O)O [Bortezomib] + CN(C)S(=O)(=O)c1ccc2c(c1)/C(=C/c1cc3c([nH]1)CCCC3)C(=O)N2 [SU6656] (first compound 0.001 µM, partner dose 0.4 µM)",111,71.3,114,97.7,132,41.6,159,154,84.7,161,148,514,189,85.4,503,70.7
"CC(C)C[C@H](NC(=O)[C@H](Cc1ccccc1)NC(=O)c1cnccn1)B(O)O [Bortezomib] + O=C(CCCCCCC(=O)Nc1ccccc1)NO [vorinostat] (first compound 0.001 µM, partner dose 0.08 µM)",109,89.4,103,126,209,79.3,70.8,67.7,123,206,144,343,118,63.6,255,154
"Cn1c(=O)n(-c2ccc(C(C)(C)C#N)cc2)c2c3cc(-c4cnc5ccccc5c4)ccc3ncc21 + C=CCn1c(=O)c2cnc(Nc3ccc(N4CCN(C)CC4)cc3)nc2n1-c1cccc(C(C)(C)O)n1 [MK1775] (first compound 0.004 µM, partner dose 0.02 µM)",174,107,42,74.3,105,73.9,88.9,52.3,230,177,128,247,315,273,126,26.8
"Cc1cc(Nc2cc(N3CCN(C)CC3)nc(/C=C/c3ccccc3)n2)n[nH]1 + O=C(CCCCCCC(=O)Nc1ccccc1)NO [vorinostat] (first compound 0.04 µM, partner dose 0.08 µM)",15.5,36.6,126,115,98.3,115,58.6,81.2,97.2,119,123,108,88.6,67.7,97.9,73.6
"Cn1c(=O)n(-c2ccc(C(C)(C)C#N)cc2)c2c3cc(-c4cnc5ccccc5c4)ccc3ncc21 + CC1(C)NC(=O)N(c2ccc([N+](=O)[O-])c(C(F)(F)F)c2)C1=O [nilutamide] (first compound 0.004 µM, partner dose 1 µM)",90.5,47.8,222,274,205,136,77.7,76,48.9,84.1,140,141,102,120,99,31.6
"C=C(c1ccc(C(=O)O)cc1)c1cc2c(cc1C)C(C)(C)CCC2(C)C [Bexarotene] + N#Cc1c(O)c2c(-c3ccc(-c4ccccc4O)cc3)csc2[nH]c1=O [A769662] (first compound 2 µM, partner dose 2 µM)",108,30.1,82.4,23.4,334,151,63,74,133,114,22.1,168,90.5,87.9,101,76.9
"CC(C)C[C@H](NC(=O)[C@H](Cc1ccccc1)NC(=O)c1cnccn1)B(O)O [Bortezomib] + CN(NC(=O)CC(=O)NN(C)C(=S)c1ccccc1)C(=S)c1ccccc1 [STA4783] (first compound 0.001 µM, partner dose 0.006 µM)",224,177,114,46.6,58.8,69.1,60.3,85.8,88.4,142,405,680,253,66.8,574,224
"CN1CCN(c2ccc3nc(-c4c(N)c5c(F)cccc5[nH]c4=O)[nH]c3c2)CC1 [Dovitinib] + OCCn1cc(-c2cnc3nnn(Cc4ccc5ncccc5c4)c3n2)cn1 [PF04217903] (first compound 0.1 µM, partner dose 1 µM)",161,114,78.3,46.5,89.1,137,265,194,60,234,144,76.4,81.5,66.2,88.1,84
"O=C(O)c1ccc2c(c1)nc(Nc1cccc(Cl)c1)c1ccncc12 + COc1cc2c(Oc3ccc4[nH]c(C)cc4c3F)ncnc2cc1OCCCN1CCCC1 [cediranib] (first compound 0.4 µM, partner dose 0.4 µM)",143,111,87.7,77.8,55.1,92.8,83.8,134,109,74,118,125,93.4,36.1,92.5,134
"O=C(O)c1ccc2c(c1)nc(Nc1cccc(Cl)c1)c1ccncc12 + O=C(CCCCCCC(=O)Nc1ccccc1)NO [vorinostat] (first compound 0.4 µM, partner dose 0.08 µM)",40.8,47,206,97.6,52.6,140,70.8,26.7,194,47.2,18,223,73.7,80.1,159,73.6
"Nc1nc(F)nc2c1ncn2[C@@H]1O[C@H](CO)[C@@H](O)[C@@H]1O [fludarabine] + CCc1ccc(CCOc2ccc(CC3SC(=O)NC3=O)cc2)nc1 [pioglitazone] (first compound 0.2 µM, partner dose 2 µM)",20.5,334,94.4,160,86.2,190,474,116,63.4,106,274,58.1,89.8,456,89.2,204
"CN1CCN(c2ccc3nc(-c4c(N)c5c(F)cccc5[nH]c4=O)[nH]c3c2)CC1 [Dovitinib] + C[C@@H]1CCN(C(=O)CC#N)C[C@@H]1N(C)c1ncnc2[nH]ccc12 [CP690550] (first compound 0.1 µM, partner dose 1 µM)",216,54.9,92,43.5,242,63.3,56.9,94.4,92.5,187,94.9,68.2,107,87.3,95.1,116
"CS(=O)(=O)CCNCc1ccc(-c2ccc3ncnc(Nc4ccc(OCc5cccc(F)c5)c(Cl)c4)c3c2)o1 [lapatinib] + CN(C)S(=O)(=O)c1ccc2c(c1)/C(=C/c1cc3c([nH]1)CCCC3)C(=O)N2 [SU6656] (first compound 0.8 µM, partner dose 0.4 µM)",188,113,118,1720,69.3,92.4,42,73.7,55.5,140,133,92.6,92.1,55.6,86.3,103
"Cn1c(=O)n(-c2ccc(C(C)(C)C#N)cc2)c2c3cc(-c4cnc5ccccc5c4)ccc3ncc21 + O=C(O)C(=O)Nc1sc2c(c1C(=O)O)CCNC2 [TCS401] (first compound 0.004 µM, partner dose 1.66667 µM)",53.7,62.3,65.3,55,94,127,109,138,141,115,59.5,167,94.6,185,77.8,71.8
"Nc1ccn([C@@H]2O[C@H](CO)[C@@H](O)C2(F)F)c(=O)n1 [gemcitabine] + Cc1cc(N2CCOCC2)cc2[nH]c(-c3c(NC[C@@H](O)c4cccc(Cl)c4)cc[nH]c3=O)nc12 [BMS536924] (first compound 0.0004 µM, partner dose 0.2 µM)",156,52.2,42.7,161,113,88.2,228,135,189,182,24.6,221,130,33.3,125,82.1
"Cn1c(=O)n(-c2ccc(C(C)(C)C#N)cc2)c2c3cc(-c4cnc5ccccc5c4)ccc3ncc21 + COc1cc(N2CCC(N3CCN(C)CC3)CC2)ccc1Nc1ncc(Cl)c(Nc2ccccc2S(=O)(=O)C(C)C)n1 [NVP-TAE684] (first compound 0.004 µM, partner dose 0.08 µM)",103,210,186,199,162,106,70.7,74.3,38.4,283,171,125,99.2,149,90.3,40

# Given bar-delimited: part of the list above
SMILES | cleaved PARP positive nuclei fraction (MZ2-MEL) [%] | cleaved PARP positive nuclei fraction (MeWo) [%] | cleaved PARP positive nuclei fraction (RPMI7951) [%] | cleaved PARP positive nuclei fraction (RVH-421) [%] | cleaved PARP positive nuclei fraction (SkMel28) [%] | cleaved PARP positive nuclei fraction (SkMel2) [%] | cleaved PARP positive nuclei fraction (SkMel30) [%] | cleaved PARP positive nuclei fraction (SkMel5) [%] | cleaved PARP positive nuclei fraction (UACC257) [%] | cleaved PARP positive nuclei fraction (UACC62) [%] | cleaved PARP positive nuclei fraction (WM115) [%] | cleaved PARP positive nuclei fraction (WM1716) [%] | cleaved PARP positive nuclei fraction (WM1745) [%] | cleaved PARP positive nuclei fraction (WM3526) [%] | cleaved PARP positive nuclei fraction (WM3619) [%] | cleaved PARP positive nuclei fraction (WM451Lu) [%]
O=C(O)c1ccc2c(c1)nc(Nc1cccc(Cl)c1)c1ccncc12 + COc1cc2c(Oc3ccc4[nH]c(C)cc4c3F)ncnc2cc1OCCCN1CCCC1 [cediranib] (first compound 0.4 µM, partner dose 0.4 µM) | 143 | 111 | 87.7 | 77.8 | 55.1 | 92.8 | 83.8 | 134 | 109 | 74 | 118 | 125 | 93.4 | 36.1 | 92.5 | 134
Nc1nc(F)nc2c1ncn2[C@@H]1O[C@H](CO)[C@@H](O)[C@@H]1O [fludarabine] + CCc1ccc(CCOc2ccc(CC3SC(=O)NC3=O)cc2)nc1 [pioglitazone] (first compound 0.2 µM, partner dose 2 µM) | 20.5 | 334 | 94.4 | 160 | 86.2 | 190 | 474 | 116 | 63.4 | 106 | 274 | 58.1 | 89.8 | 456 | 89.2 | 204
